Source: article PMC7393113
No constants are given. Whether binding was seen depends on the method and setting. In cells and extracts the contact can be indirect. Some results given as binding are weak or reduced against the parent protein; the word gives no strength.

Sequences of proteins named here, by UniProt entry; tags and fusion partners are left off.
UniProt P42227: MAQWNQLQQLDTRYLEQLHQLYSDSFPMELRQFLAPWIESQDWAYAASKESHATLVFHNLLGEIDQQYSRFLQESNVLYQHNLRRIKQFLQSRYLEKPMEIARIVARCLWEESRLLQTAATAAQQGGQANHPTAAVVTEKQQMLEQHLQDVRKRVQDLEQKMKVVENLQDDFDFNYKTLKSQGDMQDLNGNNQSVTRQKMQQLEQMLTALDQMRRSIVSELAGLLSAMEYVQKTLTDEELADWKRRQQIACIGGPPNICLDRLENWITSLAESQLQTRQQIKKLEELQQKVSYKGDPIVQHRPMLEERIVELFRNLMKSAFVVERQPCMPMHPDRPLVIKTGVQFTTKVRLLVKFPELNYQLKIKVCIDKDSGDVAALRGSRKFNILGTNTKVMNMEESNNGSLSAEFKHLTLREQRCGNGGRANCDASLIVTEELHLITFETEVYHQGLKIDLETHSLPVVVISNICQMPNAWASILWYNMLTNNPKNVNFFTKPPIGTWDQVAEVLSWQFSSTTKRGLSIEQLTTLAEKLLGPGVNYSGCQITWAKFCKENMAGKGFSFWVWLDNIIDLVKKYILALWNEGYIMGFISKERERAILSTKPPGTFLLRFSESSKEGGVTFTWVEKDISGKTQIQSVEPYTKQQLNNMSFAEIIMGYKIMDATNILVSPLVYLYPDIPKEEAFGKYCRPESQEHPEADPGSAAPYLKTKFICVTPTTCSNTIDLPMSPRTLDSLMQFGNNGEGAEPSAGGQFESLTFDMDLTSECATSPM

Target: T1, TRAF6 (mouse (endogenous in BMDMs)) (UniProt P70196)
T1 sequence: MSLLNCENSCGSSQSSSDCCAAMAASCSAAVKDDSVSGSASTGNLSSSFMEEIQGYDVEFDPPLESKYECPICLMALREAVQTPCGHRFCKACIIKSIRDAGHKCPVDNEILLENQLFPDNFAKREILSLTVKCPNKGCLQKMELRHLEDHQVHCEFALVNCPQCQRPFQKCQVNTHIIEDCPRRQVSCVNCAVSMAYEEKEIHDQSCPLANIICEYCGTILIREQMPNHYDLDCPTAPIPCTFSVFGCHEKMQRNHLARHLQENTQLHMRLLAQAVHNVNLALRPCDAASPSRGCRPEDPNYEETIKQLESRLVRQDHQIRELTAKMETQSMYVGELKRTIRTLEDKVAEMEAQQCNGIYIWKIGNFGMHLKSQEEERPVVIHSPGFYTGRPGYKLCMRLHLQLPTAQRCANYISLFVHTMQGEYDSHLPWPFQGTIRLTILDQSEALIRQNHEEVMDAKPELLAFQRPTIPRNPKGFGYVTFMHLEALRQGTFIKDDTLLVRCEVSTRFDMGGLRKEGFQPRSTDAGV
Assay: co-IP; BMDMs stimulated with LPS (1 ug/ml) for indicated times; TRAF6 immunoprecipitated from cellular lysates, blot with anti-STAT3

binding: binds
Substance: STAT3 (from UniProt P42227 1-770)
